Reference: patent publication US20220380769A1 (priority 2020, published 2022)
Some entries share one result that the patent states for a list of compounds.

Experiment: Development of antibodies to the dsRNA in usage
From the text: Of the tdsRNA of the disclosure, the tdsRNA of formula 1 and formula 5 is preferred. This is because mis-paired regions of base pair hydrogen bonding accelerate chain hydrolysis while preserving biological activity compared to, for example, formula 3 and formula 4. Also formula 1 and formula 5 had decreased toxicity and improved safety compared to the tdsRNA which has an absence of mis-pairing.

Polyribosinic-Polyribocytidylic Acid Stabilized with Poly-L-lysine, in Carboxymethylcellulose [Poly ICLC, reference compound]
antibody formation: 40-60%
